Test results from US5328830A, “Potassium channel modulators” (Miles Inc., priority 1992, dated 1994).

Test system: CMPD-I-sensitive, K^+ channel binding site
Assay: [^3 H]CMPD-I ligand binding to intact RINm5F cells
Set-up: species or system rat
Procedure: The cells were fed three times a week and passed weekly with 0.25% trypsin/0.02% EDTA (JRH Biosciences, Lenexa, Kans.). For intact cell binding experiments, RINm5F cells were plated onto 60 mm polystyrene petri dishes (Corning) at 5×10^6 cells/dish and grown for 3 days without a change of media. Alternatively, cells were seeded 1×10^6 cells/dish and grown for 7 days with the last feeding two days prior to use. Final cell density was 10-20 ×10^6 cells/dish. […] Intact cell binding was performed with the cells attached to the dishes. Binding was terminated by three successive 3 ml washes of cold (4° C.) buffer. Cells were removed from the dish in 1.6 ml of 0.5 N NaOH, briefly sonicated and radioactivity was quantitated with a liquid scintillation counter using 10 ml cocktail (Ultima Gold, Packard). Statistical analysis to determine KD and BMax was accomplished using nonlinear regression (Enzfitter, Elsevier-Biosoft, Cambridge, UK). IC50 values were determined using a sigmoidal fit of mean percent inhibition versus log of concentration. […] Each sample was counted for at least one minute by a liquid scintillation system set for counting tritium. Total protein content of each dish was determined by the method of Bradford with bovine serum albumin used as the standard. […] IC50 values were calculated from the plot of the fraction of maximal inhibition versus Log of concentration (Enzfitter, Id.).

For `[3H]c1cc([3H])c(NC(=C[N+](=O)[O-])NC(C)C(C)(C)C)c(OCC)c1` (single isomer, unassigned) [[^3 H]CMPD-I], which BMax (Scatchard analysis (FIG. 3)) is on record?
Its BMax is 42 fmol/mg total protein.

What about the BMax (determined by saturation analysis) of the same molecule?
Its BMax is 50 fmol/mg total protein.
